Where “and” joins values, the source holds several entries; their conditions need not be identical. Equal values may be shown once. At least one read-out could not be matched to a standard name with certainty.
Key:
uterus = assay: Wet uterine weight in ovariectomized rats (four day dosing); assay type: in vivo, female Sprague Dawley rats; settings: 0.1 mg/kg, oral, daily for 4 days; increase vs OVX control
Procedure: (§1) In the examples illustrating the methods, a post-menopausal model was used in which effects of different treatments upon various biological parameters were determined, including serum cholesterol concentration, uterine weight, eosinophil peroxidase activity, MCF-7 cell proliferation, and bone density.
(§2) Animals were dosed daily for 4 days. […] A blood sample was collected by cardiac puncture.
Data presented in Table 1 below show comparative results among control ovariectomized rats, rats treated with EE2, and rats treated with certain compounds of the present invention. […] This uterine response to estrogen is well recognized in the art.
(§3) The data presented in Table 1 reflect the response of 5 to 6 rats per treatment.

eosinophil peroxidase = assay: Uterine eosinophil peroxidase (EPO) assay in ovariectomized rats (four day dosing); assay type: in vivo, female Sprague Dawley rats; parameters: unit not given here; settings: oral, daily for 4 days, OVX rats
Procedure: as §1, §2, §3

## O=C(c1ccc(OCC(=O)N2CCCC2)cc1)c1c(-c2ccc(O)cc2)sc2cc(O)ccc12 [Compound 8]
uterus
  Uterine Weight (% inc. OVX): -4.7%
Eosinophil peroxidase; 0.1 mg/kg
  Uterine EPO (Vmax): 3.6 and 4.4
Eosinophil peroxidase; 1 mg/kg
  Uterine EPO (Vmax): 6.1 and 3.7
